Test results reported in patent US10233200B2, “Organomodified monosilyl compound, its preparation and applications thereof” (Momentive Performance Materials Inc., priority 2017, dated 2019).

System: canola leaf
Assay: Total Available Dose (TAD) of 2,4-D DMA into canola leaf = Uptake (%) x Droplet Adhesion (%)
Settings: no adjuvant compound (0 % wt/vol), 2,4-D alone

CNC.O=C(O)COc1ccc(Cl)cc1Cl [2,4-D alone, 2,4-dichlorophenoxyacetic acid, dimethylamine salt]
TAD (2 HAT): 0.8
TAD (24 HAT): 4.9
